Results reported in the supplement of paper PMC10060354, “Discovery of a small molecule ligand of FRS2 that inhibits invasion and tumor growth” (Cellular Oncology, 2022).

Sequences of proteins named here, by UniProt entry; tags and fusion partners are left off. A change or cut given only in a name is not applied to a line headed by its entry.
UniProt O94886: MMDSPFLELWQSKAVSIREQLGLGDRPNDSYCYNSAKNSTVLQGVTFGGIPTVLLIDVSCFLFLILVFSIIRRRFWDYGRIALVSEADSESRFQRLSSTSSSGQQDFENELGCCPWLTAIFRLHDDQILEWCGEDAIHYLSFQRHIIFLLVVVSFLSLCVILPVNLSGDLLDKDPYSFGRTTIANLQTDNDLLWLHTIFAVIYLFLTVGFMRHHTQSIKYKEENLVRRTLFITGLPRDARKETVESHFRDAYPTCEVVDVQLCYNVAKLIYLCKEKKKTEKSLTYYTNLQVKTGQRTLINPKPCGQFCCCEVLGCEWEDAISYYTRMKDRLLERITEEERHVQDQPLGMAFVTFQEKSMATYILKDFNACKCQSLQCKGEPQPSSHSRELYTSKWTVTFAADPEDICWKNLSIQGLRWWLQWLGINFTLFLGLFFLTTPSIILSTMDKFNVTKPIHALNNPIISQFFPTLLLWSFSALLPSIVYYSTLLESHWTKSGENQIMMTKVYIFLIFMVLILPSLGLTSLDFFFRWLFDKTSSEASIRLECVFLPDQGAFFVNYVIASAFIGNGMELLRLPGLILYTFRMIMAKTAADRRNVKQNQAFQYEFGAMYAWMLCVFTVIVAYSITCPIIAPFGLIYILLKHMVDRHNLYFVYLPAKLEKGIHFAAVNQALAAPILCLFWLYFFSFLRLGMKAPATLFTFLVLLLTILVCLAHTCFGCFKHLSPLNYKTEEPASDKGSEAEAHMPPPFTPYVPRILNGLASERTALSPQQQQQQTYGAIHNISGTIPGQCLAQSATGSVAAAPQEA
UniProt P11182, whole entry: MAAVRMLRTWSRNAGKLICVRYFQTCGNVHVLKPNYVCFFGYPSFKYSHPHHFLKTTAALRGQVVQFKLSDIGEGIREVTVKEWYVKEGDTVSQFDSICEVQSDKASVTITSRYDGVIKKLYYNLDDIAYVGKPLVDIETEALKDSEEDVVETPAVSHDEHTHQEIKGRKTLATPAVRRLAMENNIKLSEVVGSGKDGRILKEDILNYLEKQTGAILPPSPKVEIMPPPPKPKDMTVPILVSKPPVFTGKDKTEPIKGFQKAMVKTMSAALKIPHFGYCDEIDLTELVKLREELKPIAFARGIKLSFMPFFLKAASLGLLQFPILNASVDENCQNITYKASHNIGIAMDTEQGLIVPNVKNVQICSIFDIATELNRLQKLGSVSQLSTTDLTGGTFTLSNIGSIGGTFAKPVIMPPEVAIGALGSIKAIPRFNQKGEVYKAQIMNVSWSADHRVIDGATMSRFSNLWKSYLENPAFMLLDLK
UniProt Q9H9B4: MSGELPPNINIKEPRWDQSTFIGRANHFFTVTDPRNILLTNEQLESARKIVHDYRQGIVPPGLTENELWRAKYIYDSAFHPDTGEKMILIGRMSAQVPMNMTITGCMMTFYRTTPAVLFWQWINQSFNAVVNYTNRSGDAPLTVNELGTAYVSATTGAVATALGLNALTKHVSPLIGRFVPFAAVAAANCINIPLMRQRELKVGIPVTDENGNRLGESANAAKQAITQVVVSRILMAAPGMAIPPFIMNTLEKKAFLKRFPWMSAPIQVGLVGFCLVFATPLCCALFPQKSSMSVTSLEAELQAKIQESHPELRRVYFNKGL
UniProt O43395: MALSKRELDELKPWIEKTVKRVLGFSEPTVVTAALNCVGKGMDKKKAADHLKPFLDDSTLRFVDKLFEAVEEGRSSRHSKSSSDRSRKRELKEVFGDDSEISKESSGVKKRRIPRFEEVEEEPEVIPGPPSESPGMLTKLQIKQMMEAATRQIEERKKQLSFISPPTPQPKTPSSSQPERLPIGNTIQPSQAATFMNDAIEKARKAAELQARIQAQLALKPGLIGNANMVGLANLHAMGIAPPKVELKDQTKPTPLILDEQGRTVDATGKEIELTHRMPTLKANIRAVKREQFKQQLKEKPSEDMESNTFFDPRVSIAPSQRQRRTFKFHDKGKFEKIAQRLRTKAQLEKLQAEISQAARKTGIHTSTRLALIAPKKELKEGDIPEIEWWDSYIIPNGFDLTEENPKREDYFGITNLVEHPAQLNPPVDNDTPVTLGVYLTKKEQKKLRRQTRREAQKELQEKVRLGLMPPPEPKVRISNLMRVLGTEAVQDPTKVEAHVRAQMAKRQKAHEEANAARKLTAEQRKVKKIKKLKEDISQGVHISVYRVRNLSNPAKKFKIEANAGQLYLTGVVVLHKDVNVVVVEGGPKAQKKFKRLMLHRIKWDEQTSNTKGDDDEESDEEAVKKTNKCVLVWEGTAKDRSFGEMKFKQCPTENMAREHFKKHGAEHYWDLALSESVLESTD
UniProt P13498: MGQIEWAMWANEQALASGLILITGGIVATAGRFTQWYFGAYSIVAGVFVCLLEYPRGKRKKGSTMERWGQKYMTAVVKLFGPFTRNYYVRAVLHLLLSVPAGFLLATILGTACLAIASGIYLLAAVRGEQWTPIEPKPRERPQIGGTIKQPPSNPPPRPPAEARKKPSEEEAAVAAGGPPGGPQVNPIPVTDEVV
UniProt P47756, whole entry: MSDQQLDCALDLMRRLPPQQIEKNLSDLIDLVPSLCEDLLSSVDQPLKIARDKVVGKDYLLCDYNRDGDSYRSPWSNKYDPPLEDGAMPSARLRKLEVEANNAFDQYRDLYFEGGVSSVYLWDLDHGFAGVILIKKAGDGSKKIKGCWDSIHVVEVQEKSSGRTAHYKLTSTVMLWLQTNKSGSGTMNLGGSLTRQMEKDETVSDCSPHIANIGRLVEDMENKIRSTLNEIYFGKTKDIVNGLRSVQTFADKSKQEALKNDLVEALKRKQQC
UniProt Q13478: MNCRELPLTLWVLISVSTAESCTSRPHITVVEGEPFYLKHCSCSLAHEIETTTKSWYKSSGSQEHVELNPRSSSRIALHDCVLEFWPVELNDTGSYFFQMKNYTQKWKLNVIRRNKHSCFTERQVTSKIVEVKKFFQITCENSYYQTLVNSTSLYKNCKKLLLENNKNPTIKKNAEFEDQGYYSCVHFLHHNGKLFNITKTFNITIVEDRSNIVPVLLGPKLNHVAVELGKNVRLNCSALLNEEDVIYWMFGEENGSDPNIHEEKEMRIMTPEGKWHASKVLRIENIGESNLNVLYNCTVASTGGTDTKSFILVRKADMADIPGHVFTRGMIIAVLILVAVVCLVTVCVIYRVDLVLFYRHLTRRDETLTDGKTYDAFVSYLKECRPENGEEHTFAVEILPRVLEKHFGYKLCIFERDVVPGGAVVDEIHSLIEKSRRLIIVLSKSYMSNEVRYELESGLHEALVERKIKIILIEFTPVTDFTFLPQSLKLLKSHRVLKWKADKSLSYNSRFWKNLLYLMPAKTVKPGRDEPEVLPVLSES
UniProt O14925: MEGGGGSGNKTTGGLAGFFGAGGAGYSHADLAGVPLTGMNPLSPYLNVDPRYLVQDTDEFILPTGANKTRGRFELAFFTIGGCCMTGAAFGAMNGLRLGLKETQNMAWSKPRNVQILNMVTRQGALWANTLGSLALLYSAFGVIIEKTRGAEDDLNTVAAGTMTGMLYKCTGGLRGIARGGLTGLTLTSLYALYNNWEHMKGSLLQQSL
UniProt P37837: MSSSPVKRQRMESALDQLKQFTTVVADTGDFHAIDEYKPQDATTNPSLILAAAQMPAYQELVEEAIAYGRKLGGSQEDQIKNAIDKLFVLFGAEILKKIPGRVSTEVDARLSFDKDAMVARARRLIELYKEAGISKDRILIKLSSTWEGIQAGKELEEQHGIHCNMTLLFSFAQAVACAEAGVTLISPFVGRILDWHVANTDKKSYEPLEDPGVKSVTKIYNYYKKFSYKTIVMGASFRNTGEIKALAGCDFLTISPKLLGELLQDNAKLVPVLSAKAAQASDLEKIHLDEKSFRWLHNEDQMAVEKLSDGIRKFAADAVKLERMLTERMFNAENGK
UniProt Q9P2S5: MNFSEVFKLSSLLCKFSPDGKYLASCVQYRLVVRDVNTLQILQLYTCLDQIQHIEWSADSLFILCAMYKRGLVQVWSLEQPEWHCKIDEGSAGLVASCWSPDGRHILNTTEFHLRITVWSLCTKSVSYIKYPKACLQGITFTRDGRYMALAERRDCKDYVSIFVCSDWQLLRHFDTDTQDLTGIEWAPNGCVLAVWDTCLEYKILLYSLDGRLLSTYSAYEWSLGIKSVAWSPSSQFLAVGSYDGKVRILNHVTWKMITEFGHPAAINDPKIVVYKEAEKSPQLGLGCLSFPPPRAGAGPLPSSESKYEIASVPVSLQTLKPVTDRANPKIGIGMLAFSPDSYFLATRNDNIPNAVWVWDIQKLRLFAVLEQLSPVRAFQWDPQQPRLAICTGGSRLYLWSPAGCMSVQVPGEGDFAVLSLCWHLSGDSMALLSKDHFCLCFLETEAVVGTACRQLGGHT
UniProt P18031: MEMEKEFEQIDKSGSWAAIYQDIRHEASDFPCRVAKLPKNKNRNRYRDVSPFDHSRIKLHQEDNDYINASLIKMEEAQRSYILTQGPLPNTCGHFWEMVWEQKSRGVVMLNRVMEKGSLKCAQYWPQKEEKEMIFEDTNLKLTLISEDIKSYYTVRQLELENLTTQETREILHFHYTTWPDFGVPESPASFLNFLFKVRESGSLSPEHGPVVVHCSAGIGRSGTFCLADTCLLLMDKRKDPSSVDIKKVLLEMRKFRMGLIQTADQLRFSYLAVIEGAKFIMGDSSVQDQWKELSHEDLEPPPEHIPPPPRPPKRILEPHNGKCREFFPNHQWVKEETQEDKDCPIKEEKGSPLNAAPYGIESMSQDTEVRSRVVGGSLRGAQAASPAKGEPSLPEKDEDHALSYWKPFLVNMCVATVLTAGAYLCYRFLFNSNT
UniProt P40261: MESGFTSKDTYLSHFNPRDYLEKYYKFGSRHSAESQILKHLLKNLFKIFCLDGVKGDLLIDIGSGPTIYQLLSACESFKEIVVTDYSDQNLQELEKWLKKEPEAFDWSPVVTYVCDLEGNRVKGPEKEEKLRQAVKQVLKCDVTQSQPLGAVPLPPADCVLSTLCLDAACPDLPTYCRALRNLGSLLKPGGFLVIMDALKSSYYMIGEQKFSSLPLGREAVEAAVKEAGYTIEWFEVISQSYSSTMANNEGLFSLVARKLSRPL
UniProt P02689: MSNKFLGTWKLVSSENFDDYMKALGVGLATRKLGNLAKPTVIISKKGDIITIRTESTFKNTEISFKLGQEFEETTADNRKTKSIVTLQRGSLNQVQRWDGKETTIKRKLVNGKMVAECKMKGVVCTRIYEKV
UniProt P48506: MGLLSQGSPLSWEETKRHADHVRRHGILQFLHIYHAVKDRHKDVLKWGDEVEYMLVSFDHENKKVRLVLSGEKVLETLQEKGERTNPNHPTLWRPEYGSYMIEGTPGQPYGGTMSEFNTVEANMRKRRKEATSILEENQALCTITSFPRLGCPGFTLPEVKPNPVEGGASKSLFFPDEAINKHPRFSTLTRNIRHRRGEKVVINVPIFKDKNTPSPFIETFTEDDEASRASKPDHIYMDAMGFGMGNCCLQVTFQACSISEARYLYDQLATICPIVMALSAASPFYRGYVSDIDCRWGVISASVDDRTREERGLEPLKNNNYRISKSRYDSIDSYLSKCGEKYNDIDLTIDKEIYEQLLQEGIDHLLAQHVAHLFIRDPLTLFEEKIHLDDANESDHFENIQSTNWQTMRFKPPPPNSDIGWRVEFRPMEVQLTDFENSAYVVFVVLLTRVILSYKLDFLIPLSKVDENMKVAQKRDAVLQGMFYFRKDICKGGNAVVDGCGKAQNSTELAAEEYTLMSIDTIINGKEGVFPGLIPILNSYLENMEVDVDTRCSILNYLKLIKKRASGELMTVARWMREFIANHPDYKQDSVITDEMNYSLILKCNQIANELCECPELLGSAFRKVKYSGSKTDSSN
UniProt Q86YV9: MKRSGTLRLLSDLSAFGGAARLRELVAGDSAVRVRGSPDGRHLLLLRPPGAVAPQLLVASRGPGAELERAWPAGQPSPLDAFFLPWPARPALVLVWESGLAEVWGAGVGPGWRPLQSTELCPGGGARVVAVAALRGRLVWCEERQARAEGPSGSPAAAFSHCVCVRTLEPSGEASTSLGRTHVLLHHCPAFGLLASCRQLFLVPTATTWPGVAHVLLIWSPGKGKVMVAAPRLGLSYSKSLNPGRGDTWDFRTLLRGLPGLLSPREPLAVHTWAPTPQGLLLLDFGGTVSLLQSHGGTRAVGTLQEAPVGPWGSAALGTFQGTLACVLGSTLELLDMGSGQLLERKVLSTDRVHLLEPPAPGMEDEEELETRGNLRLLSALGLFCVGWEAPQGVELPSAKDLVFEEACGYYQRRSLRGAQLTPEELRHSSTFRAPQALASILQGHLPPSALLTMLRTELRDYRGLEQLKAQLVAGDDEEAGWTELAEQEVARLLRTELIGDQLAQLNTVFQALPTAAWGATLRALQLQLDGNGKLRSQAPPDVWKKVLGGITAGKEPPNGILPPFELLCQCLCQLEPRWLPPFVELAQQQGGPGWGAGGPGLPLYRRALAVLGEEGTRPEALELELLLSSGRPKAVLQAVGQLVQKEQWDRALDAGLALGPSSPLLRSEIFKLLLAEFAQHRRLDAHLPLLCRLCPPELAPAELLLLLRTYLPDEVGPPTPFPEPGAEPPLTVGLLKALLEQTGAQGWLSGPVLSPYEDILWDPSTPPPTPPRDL

Compound: [O-][N+](C(C1=C(C(O)=C2)NC(C(C=C3)=CC=C3Cl)C4C1C=CC4)=C2Cl)=O
Assay: melting temperature shift (compound 7 minus DMSO); higher = compound stabilises the protein
Conditions: 10 µM
Protocol: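 Thermal proteome profiling (TMT mass spectrometry) in intact DAOY medulloblastoma cells or DAOY lysates treated with 10 µM compound 7 or DMSO, heated at 10 temperatures from 40.5 to 73.8 °C for 3 min. Melting curves were fitted with the Bioconductor TPP package, and the melting point difference between compound and vehicle is reported per protein (single curve per condition).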

[1] = system: DAOY cell lysate, treatment time: 20 min, 4 °C
[2] = system: intact DAOY cells, treatment time: 90 min, 37 °C

Target SLC35F6 (UniProt Q8N357) has a melting temperature shift [1] of 3.4 °C and a melting temperature shift [2] of -9.94 °C.

NIP7 (UniProt Q9Y221) gave a melting temperature shift [1] of -0.38 °C and a melting temperature shift [2] of 2.65 °C.

TMEM63A (UniProt O94886) showed a melting temperature shift [2] of -1.36 °C.

With DBT (UniProt P11182) the melting temperature shift [1] was 0.884 °C and the melting temperature shift [2] was -0.0493 °C.

Work on UniProt Q8IZQ5 yielded a melting temperature shift [2] of 3.81 °C.

With HNRNPK (UniProt P61978) the melting temperature shift [1] was 0.439 °C and the melting temperature shift [2] was -0.165 °C.

SEC23A (UniProt Q15436) showed a melting temperature shift [1] of -0.325 °C and a melting temperature shift [2] of 0.199 °C.

SFXN1 (UniProt Q9H9B4) showed a melting temperature shift [1] of 0.942 °C and a melting temperature shift [2] of -1.26 °C.

With THNSL1 (UniProt Q8IYQ7) the melting temperature shift [1] was -0.0239 °C.

For PRMT9 (UniProt Q6P2P2), the melting temperature shift [1] was -0.958 °C.

UniProt Q9Y6T7 gave a melting temperature shift [1] of 2.08 °C and a melting temperature shift [2] of -0.423 °C.

Target MTMR1 (UniProt Q13613) has a melting temperature shift [1] of -0.71 °C and a melting temperature shift [2] of -1.49 °C.

In the case of PRPF3 (UniProt O43395), the melting temperature shift [1] is reported as 0.822 °C and the melting temperature shift [2] is reported as -0.923 °C.

UniProt P16520 was tested, and the melting temperature shift [1] was 3.63 °C and the melting temperature shift [2] was -3.02 °C.

Target YKT6 (UniProt O15498) has a melting temperature shift [1] of -1.66 °C and a melting temperature shift [2] of 0.0855 °C.

CYBA (UniProt P13498) gave a melting temperature shift [1] of 1.93 °C and a melting temperature shift [2] of -1.06 °C.

AP2A1 (UniProt O95782) gave a melting temperature shift [1] of -0.474 °C and a melting temperature shift [2] of -0.386 °C.

ITGB5 (UniProt P18084) was tested, and the melting temperature shift [1] was 0.426 °C and the melting temperature shift [2] was -1.21 °C.

With FBXW11 (UniProt Q9UKB1) the melting temperature shift [1] was -0.607 °C and the melting temperature shift [2] was -1.66 °C.

With MPST (UniProt P25325) the melting temperature shift [1] was 0.00511 °C and the melting temperature shift [2] was 2.05 °C.

For SLC25A5 (UniProt P05141), the melting temperature shift [1] was 2.03 °C and the melting temperature shift [2] was 0.737 °C.

LSS (UniProt P48449) showed a melting temperature shift [1] of 1.09 °C and a melting temperature shift [2] of -0.332 °C.

OPA1 (UniProt O60313) was tested, and the melting temperature shift [1] was 1.26 °C and the melting temperature shift [2] was -1.3 °C.

ERP44 (UniProt Q9BS26) was tested, and the melting temperature shift [1] was 0.277 °C and the melting temperature shift [2] was 1.02 °C.

CAPZB (UniProt P47756) gave a melting temperature shift [1] of -0.989 °C and a melting temperature shift [2] of -0.0868 °C.

RPL6 (UniProt Q02878) showed a melting temperature shift [1] of 0.898 °C and a melting temperature shift [2] of -0.495 °C.

For AKAP10 (UniProt O43572), the melting temperature shift [2] was -2.56 °C.

Target HAGH (UniProt Q16775) has a melting temperature shift [1] of 0.307 °C and a melting temperature shift [2] of 0.0132 °C.

With UniProt Q13478 the melting temperature shift [1] was 0.0637 °C.

With PHACTR4 (UniProt Q8IZ21) the melting temperature shift [1] was 1.42 °C and the melting temperature shift [2] was 1.51 °C.

DFFA (UniProt O00273) was tested, and the melting temperature shift [1] was -0.306 °C and the melting temperature shift [2] was 0.313 °C.

TYMS (UniProt P04818) gave a melting temperature shift [1] of -0.564 °C and a melting temperature shift [2] of -0.458 °C.

Work on UniProt Q7L266 yielded a melting temperature shift [1] of -1.09 °C and a melting temperature shift [2] of 1.42 °C.

UniProt Q9UQ16 was tested, and the melting temperature shift [1] was -0.614 °C.

Target MSH6 (UniProt P52701) has a melting temperature shift [1] of -1.61 °C and a melting temperature shift [2] of -0.831 °C.

TIMM23 (UniProt O14925) gave a melting temperature shift [1] of 2.01 °C and a melting temperature shift [2] of -1.01 °C.

For MED25 (UniProt Q71SY5), the melting temperature shift [1] was -3.54 °C.

For EPB41L2 (UniProt O43491), the melting temperature shift [1] was 0.918 °C and the melting temperature shift [2] was -0.263 °C.

Work on UMPS (UniProt P11172) yielded a melting temperature shift [1] of -0.141 °C and a melting temperature shift [2] of 0.0194 °C.

TBL3 (UniProt Q12788) was tested, and the melting temperature shift [1] was 0.996 °C.

Target PDCD6IP (UniProt Q8WUM4) has a melting temperature shift [1] of -0.327 °C and a melting temperature shift [2] of 0.036 °C.

With ATP5A1 (UniProt P25705) the melting temperature shift [1] was 1.63 °C and the melting temperature shift [2] was -0.673 °C.

For UniProt P05120, the melting temperature shift [1] was -0.873 °C and the melting temperature shift [2] was 0.702 °C.

For UniProt Q6KCM7, the melting temperature shift [1] was 1.9 °C.

SUMF2 (UniProt Q8NBJ7) showed a melting temperature shift [1] of 1.15 °C and a melting temperature shift [2] of 1.11 °C.

Target UniProt P84243 has a melting temperature shift [2] of 0.637 °C.

Work on ENY2 (UniProt Q9NPA8) yielded a melting temperature shift [1] of -1.18 °C.

Target NCKIPSD (UniProt Q9NZQ3) has a melting temperature shift [1] of 0.87 °C and a melting temperature shift [2] of 0.119 °C.

UniProt Q6IS14 was tested, and the melting temperature shift [2] was -0.0724 °C.

UniProt Q5H9J7 was tested, and the melting temperature shift [1] was 2 °C.

PDS5B (UniProt Q9NTI5) was tested, and the melting temperature shift [1] was -0.288 °C and the melting temperature shift [2] was -0.714 °C.

With UniProt Q9UM47 the melting temperature shift [2] was 1.74 °C.

ALDH7A1 (UniProt P49419) gave a melting temperature shift [1] of -0.0241 °C and a melting temperature shift [2] of 0.0704 °C.

For TALDO1 (UniProt P37837), the melting temperature shift [1] was -0.408 °C and the melting temperature shift [2] was 0.216 °C.

For UniProt P80404, the melting temperature shift [1] was -0.178 °C.

In the case of CELF1 (UniProt Q92879), the melting temperature shift [1] is reported as 1.67 °C and the melting temperature shift [2] is reported as -0.104 °C.

SRP9 (UniProt P49458) was tested, and the melting temperature shift [1] was -1.49 °C and the melting temperature shift [2] was 0.47 °C.

With CDK6 (UniProt Q00534) the melting temperature shift [1] was -1.1 °C and the melting temperature shift [2] was 0.527 °C.

Work on UniProt Q12841 yielded a melting temperature shift [1] of 0.883 °C.

In the case of BLVRA (UniProt P53004), the melting temperature shift [1] is reported as -0.61 °C and the melting temperature shift [2] is reported as -0.698 °C.

For P0DPH8 (UniProt P0DPH7), the melting temperature shift [1] was 0.335 °C and the melting temperature shift [2] was -0.765 °C.

Work on UniProt O95490 yielded a melting temperature shift [1] of 1.59 °C.

In the case of DRAP1 (UniProt Q14919), the melting temperature shift [1] is reported as 1.38 °C.

For ERI3 (UniProt O43414), the melting temperature shift [2] was 0.843 °C.

Target UniProt Q7Z7A4 has a melting temperature shift [1] of -1.08 °C.

Work on UniProt Q9P2S5 yielded a melting temperature shift [1] of 1.25 °C and a melting temperature shift [2] of -0.926 °C.

PRKAR2A (UniProt P13861) gave a melting temperature shift [1] of -0.0812 °C and a melting temperature shift [2] of -0.09 °C.

For ODC1 (UniProt P11926), the melting temperature shift [2] was -0.00478 °C.

Target PTPN1 (UniProt P18031) has a melting temperature shift [1] of 0.303 °C and a melting temperature shift [2] of -0.97 °C.

ATP13A1 (UniProt Q9HD20) was tested, and the melting temperature shift [1] was -4 °C and the melting temperature shift [2] was -1.63 °C.

With A0A2R8Y619, A0A2R8Y619 the melting temperature shift [2] was -0.362 °C.

For NNMT (UniProt P40261), the melting temperature shift [1] was -1.01 °C and the melting temperature shift [2] was -0.117 °C.

For PRDX2 (UniProt P32119), the melting temperature shift [1] was -0.558 °C and the melting temperature shift [2] was 0.541 °C.

UniProt P20648 was tested, and the melting temperature shift [2] was -0.865 °C.

In the case of MYDGF (UniProt Q969H8), the melting temperature shift [1] is reported as -0.13 °C and the melting temperature shift [2] is reported as -1.15 °C.

UniProt P02689 showed a melting temperature shift [2] of -0.195 °C.

In the case of FAM83G (UniProt A6ND36), the melting temperature shift [1] is reported as 0.628 °C and the melting temperature shift [2] is reported as 2.12 °C.

MED27 (UniProt Q6P2C8) showed a melting temperature shift [1] of -0.0662 °C and a melting temperature shift [2] of 0.0589 °C.

With GCLC (UniProt P48506) the melting temperature shift [1] was 0.208 °C and the melting temperature shift [2] was -0.0455 °C.

UniProt Q15013 showed a melting temperature shift [1] of -0.718 °C.

In the case of AP2S1 (UniProt P53680), the melting temperature shift [1] is reported as -0.574 °C and the melting temperature shift [2] is reported as -0.412 °C.

For UniProt O95626, the melting temperature shift [2] was 0.337 °C.

Work on LCMT2 (UniProt O60294) yielded a melting temperature shift [1] of -2.16 °C and a melting temperature shift [2] of 1.89 °C.

UniProt Q9BUB4 was tested, and the melting temperature shift [1] was -2.47 °C.

HPS6 (UniProt Q86YV9) showed a melting temperature shift [1] of -2.12 °C.

PXDN (UniProt Q92626) showed a melting temperature shift [1] of 0.809 °C and a melting temperature shift [2] of 0.896 °C.

Many values rest on one well or one pass, so single values are uncertain.
